# Results from one PubChem assay

From PubChem BioAssay record AID357 (NCATS, 2005).

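A 5-hour EGF-triggered AP-1 reporter test in ME-180 cells, measured as the 460/530 nm ratio of the cleaved substrate. Percent change in reporter activity against controls; negative values mean inhibition and positive values mean activation, so larger magnitude in either direction is the stronger effect. Calls follow the dose-response shape of the emission ratio; inconclusive is used when emission shifts sharply across the titration, for example from compound fluorescence.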

Values are in %. All entries here are filed as inconclusive. Only part of the assay is shown, chiefly results filed as inconclusive. The first word of each remark tells which way the curve ran; it can be opposite to the aim of the assay.

compound	condition	activity change (%)	curve as filed
c1ccc(Nc2ncnc3ccc(-c4ccoc4)cc23)cc1	at 7.69 µM (top of the series)	-105.4	inhibitor
CN(C)CCCN1c2ccccc2Sc2ccc(C(F)(F)F)cc21	at 17.2 µM (top of the series)	37.99	activator
C[C@@H]1O[C@@H](O[C@H]2C[C@@H](O)[C@@]3(CO)[C@H]4[C@H](O)C[C@]5(C)[C@@H](C6=CC(=O)OC6)CC[C@]5(O)[C@H]4CC[C@@]3(O)C2)[C@@H](O)[C@H](O)[C@H]1O	at 7.69 µM (top of the series)	-34.92	inhibitor
Cc1onc(-c2c(F)cccc2Cl)c1C(=O)N[C@H]1C(=O)N2[C@H]1SC(C)(C)[C@H]2C(=O)O	at 17.2 µM (top of the series)	2.291	activator
CCCn1c(=O)c2[nH]c(C3CCCC3)nc2n(CCCOC(=O)c2ccc(S(=O)(=O)F)cc2)c1=O	at 38 µM (top of the series)	-31.25	inhibitor
COc1ccc(-n2c(=O)c(-c3cccs3)nc3cnc(N4CCNCC4)nc32)cc1	at 7.69 µM (top of the series)	83.72	activator
COCCn1c(=O)cnc2cnc(Nc3cccc(OC)c3)nc21	at 7.69 µM (top of the series)	-70.75	inhibitor
c1ccc2c(c1)[I+]c1ccccc1-2	at 38 µM (top of the series)	42.68	activator
CN(C)CCCN1c2ccccc2Sc2ccc(C(F)(F)F)cc21	at 38 µM (top of the series)	45.89	activator
O=C(Nc1ccc(N2CCN(C(=O)c3ccccc3)CC2)c(Cl)c1)c1ccc(Br)o1	at 17.2 µM (top of the series)	-58.26	inhibitor
N#Cc1cccc(-c2ccc3ncnc(NCc4cccs4)c3c2)c1	at 7.69 µM (top of the series)	-81.96	inhibitor
Cc1c2ccncc2c(C)c2c1[nH]c1ccccc12	at 17.2 µM (top of the series)	-70.42	inhibitor
c1csc(CNc2ncnc3ccc(-c4ccoc4)cc23)c1	at 7.69 µM (top of the series)	-39.49	inhibitor
CCNc1ncc2nc(-c3ccc(F)cc3)c(=O)n(-c3ccccc3)c2n1	at 7.69 µM (top of the series)	155.4	activator
COCCn1c(=O)cnc2cnc(Nc3ccccc3)nc21	at 7.69 µM (top of the series)	-62.58	inhibitor
O=c1c(-c2cccs2)nc2cnc(N3CCNCC3)nc2n1-c1ccccc1	at 7.69 µM (top of the series)	77.13	activator
N#C/C(=C\c1ccc(O)c(O)c1)C(=O)NCCc1ccccc1	at 38 µM (top of the series)	-40.16	inhibitor
O=c1c(-c2cc(F)cc(F)c2)nc2cnc(N3CCOCC3)nc2n1-c1ccccc1	at 7.69 µM (top of the series)	98.94	activator
COc1ccc2c(c1)[nH]c1c(C)nccc12	at 17.2 µM (top of the series)	-33	inhibitor
COc1cccc(C(=O)Nc2ccc(-c3nnc(-c4ccco4)o3)cc2)c1	at 17.2 µM (top of the series)	-67.58	inhibitor
Cc1ccc(C(=O)CSC2=C(C#N)C(c3ccco3)C3=C(CCCC3=O)N2)cc1 (centres undefined)	at 17.2 µM (top of the series)	-54.39	inhibitor
Fc1ccc(CN(C2=NCCN2)c2c(Cl)cccc2Cl)cc1	at 38 µM (top of the series)	57.63	activator
COc1ccc(-c2nc3cnc(N4CCNCC4)nc3n(-c3ccc(OC)cc3)c2=O)cc1	at 7.69 µM (top of the series)	123.4	activator
COc1ccc(C(=O)N2CCC3(CCCN(Cc4cc(C(F)(F)F)cc(C(F)(F)F)c4)C3)CC2)cc1	at 7.69 µM (top of the series)	53.35	activator
Cc1cccc(Nc2ncnc3ccccc23)c1	at 17.2 µM (top of the series)	-103.8	inhibitor
CC[C@H](NC(=O)c1c(C)c(-c2ccccc2)nc2ccccc12)c1ccccc1	at 38 µM (top of the series)	-40.84	inhibitor
CN(C)C(=O)c1ccc(-c2ccc3ncnc(NCc4ccccc4)c3c2)cc1	at 7.69 µM (top of the series)	-45.5	inhibitor
CN1[C@@H]2CC[C@H]1CC(OC(=O)c1c[nH]c3ccccc13)C2 (some centres undefined)	at 38 µM (top of the series)	64.06	activator
CC(=O)Nc1nnc(S(N)(=O)=O)s1	at 17.2 µM (top of the series)	10.46	inhibitor
CC(C)C[C@H](N)CSSC[C@@H](N)CC(C)C	at 38 µM (top of the series)	39.79	activator
COc1cccc(Cn2c(=O)c(-c3ccc(F)cc3)nc3cnc(N4CCOCC4)nc32)c1	at 7.69 µM (top of the series)	39.23	activator
Clc1ccc(COC(Cn2ccnc2)c2ccc(Cl)cc2Cl)c(Cl)c1 (centres undefined)	at 17.2 µM (top of the series)	9.657	activator